According to article PMC11589570, “Critical assessment of LC3/GABARAP ligands used for degrader development and ligandability of LC3/GABARAP binding pockets” (Nature Communications, 2024):
“And” between values parts separate entries of the source, which are not always exact repeats. Equal entries are not always repeated. This continues a long series; more values of the same kind are listed elsewhere.

Tested on: U2OS cells
Test: Cell growth assay (IncuCyte confluence over 72 h)
Format: cell-based
Set-up: key: % of well area covered by cells (confluence)
Settings: listed as AN2
Procedure, shortened: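 U2OS cells were grown in DMEM with 10% FBS for 24 h before treatment. Confluence was then tracked by IncuCyte phase imaging over 72 h and expressed as % of well area covered by cells. Each point is the average of three wells.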

In the case of `O=c1cc(-c2ccccc2)c2c(O)cc(O)cc2o1` [compound 2], the U2OS cell growth (100 nM, time 12 h) is reported as 34.3423 and 38.3293 and 32.538, the U2OS cell growth (100 nM, time 14 h) is reported as 35.477 and 39.741 and 36.4964 and the U2OS cell growth (100 nM, time 16 h) is reported as 37.5326 and 46.1001 and 39.0596. For the same compound, the U2OS cell growth (100 nM, time 18 h) was 40.4627 and 48.8702 and 35.6284, the U2OS cell growth (100 nM, time 20 h) was 44.6709 and 45.0971 and 41.9388 and the U2OS cell growth (100 nM, time 22 h) was 43.4234 and 54.7584 and 46.3049. For the same compound, the U2OS cell growth (100 nM, time 24 h) was 44.0555 and 57.1247 and 42.0827, the U2OS cell growth (100 nM, time 26 h) was 47.7103 and 58.3648 and 50.2935 and the U2OS cell growth (100 nM, time 28 h) was 53.5819 and 61.2432 and 48.7471. For the same compound, the U2OS cell growth (100 nM, time 30 h) was 48.7233 and 63.9047 and 49.197, the U2OS cell growth (100 nM, time 32 h) was 58.2927 and 62.0443 and 60.2496 and the U2OS cell growth (100 nM, time 34 h) was 59.4673 and 70.7378 and 66.2512. For the same compound, the U2OS cell growth (100 nM, time 36 h) was 56.9666 and 70.4292 and 57.2311, the U2OS cell growth (100 nM, time 38 h) was 70.6752 and 77.1372 and 72.8151 and the U2OS cell growth (100 nM, time 40 h) was 60.4802 and 74.9999 and 59.8685. For the same compound, the U2OS cell growth (100 nM, time 42 h) was 61.7718 and 79.8159 and 68.5707, the U2OS cell growth (100 nM, time 44 h) was 77.2652 and 81.5206 and 77.0732 and the U2OS cell growth (100 nM, time 46 h) was 72.1626 and 78.4794 and 67.8392. The U2OS cell growth (100 nM, time 48 h) was 73.864 and 86.5187 and 78.6619, the U2OS cell growth (100 nM, time 50 h) was 77.3939 and 88.7182 and 76.3855 and the U2OS cell growth (100 nM, time 52 h) was 76.6283 and 91.2888 and 80.9609. For the same compound, the U2OS cell growth (100 nM, time 54 h) was 86.1144 and 89.7354 and 90.3047, the U2OS cell growth (100 nM, time 56 h) was 86.2269 and 94.4191 and 81.7281 and the U2OS cell growth (100 nM, time 58 h) was 85.0839 and 95.5732 and 89.3513. The U2OS cell growth (100 nM, time 60 h) was 97.2305 and 98.5479 and 98.1519, the U2OS cell growth (100 nM, time 62 h) was 90.5339 and 96.8128 and 92.4939 and the U2OS cell growth (100 nM, time 64 h) was 92.4611 and 96.1155 and 94.919. The U2OS cell growth (100 nM, time 66 h) was 92.9609 and 97.0174 and 92.4805, the U2OS cell growth (100 nM, time 68 h) was 93.5362 and 99.5096 and 94.9483 and the U2OS cell growth (100 nM, time 70 h) was 97.821 and 98.7842 and 95.4507. For the same compound, the U2OS cell growth (100 nM, time 72 h) was 96.6913 and 98.9826 and 93.4854, the U2OS cell growth (500 nM, time 12 h) was 47.1284 and 43.5481 and 39.0428 and the U2OS cell growth (500 nM, time 14 h) was 49.5409 and 49.1387 and 42.0975. For the same compound, the U2OS cell growth (500 nM, time 16 h) was 55.7175 and 52.245 and 48.6905, the U2OS cell growth (500 nM, time 18 h) was 55.6236 and 52.599 and 48.546 and the U2OS cell growth (500 nM, time 20 h) was 53.0213 and 55.366 and 47.3648. For the same compound, the U2OS cell growth (500 nM, time 22 h) was 62.5761 and 54.1744 and 45.7257, the U2OS cell growth (500 nM, time 24 h) was 65.2798 and 60.0343 and 52.802 and the U2OS cell growth (500 nM, time 26 h) was 66.2082 and 62.2524 and 57.7172. For the same compound, the U2OS cell growth (500 nM, time 28 h) was 66.0407 and 65.7812 and 56.545, the U2OS cell growth (500 nM, time 30 h) was 67.1951 and 62.4895 and 64.6895 and the U2OS cell growth (500 nM, time 32 h) was 68.2031 and 68.0485 and 57.2869. For the same compound, the U2OS cell growth (500 nM, time 34 h) was 71.4453 and 71.9788 and 67.232, the U2OS cell growth (500 nM, time 36 h) was 76.2204 and 71.0328 and 69.6923 and the U2OS cell growth (500 nM, time 38 h) was 80.7 and 79.9069 and 75.8523. For the same compound, the U2OS cell growth (500 nM, time 40 h) was 86.4278 and 80.9253 and 76.5176, the U2OS cell growth (500 nM, time 42 h) was 85.4718 and 77.5726 and 80.0637 and the U2OS cell growth (500 nM, time 44 h) was 87.8795 and 85.8834 and 85.7665. For the same compound, the U2OS cell growth (500 nM, time 46 h) was 84.3372 and 82.7204 and 76.036, the U2OS cell growth (500 nM, time 48 h) was 90.2037 and 90.173 and 87.5361 and the U2OS cell growth (500 nM, time 50 h) was 90.926 and 89.6499 and 89.2282. The U2OS cell growth (500 nM, time 52 h) was 93.0151 and 91.88 and 90.454, the U2OS cell growth (500 nM, time 54 h) was 93.5517 and 91.3108 and 88.0622 and the U2OS cell growth (500 nM, time 56 h) was 95.1988 and 91.5945 and 93.4435. For the same compound, the U2OS cell growth (500 nM, time 58 h) was 96.3749 and 95.7072 and 95.5313, the U2OS cell growth (500 nM, time 60 h) was 98.1371 and 97.1435 and 98.0383 and the U2OS cell growth (500 nM, time 62 h) was 96.9808 and 96.3633 and 97.3892. The U2OS cell growth (500 nM, time 64 h) was 97.3563 and 98.342 and 96.5917, the U2OS cell growth (500 nM, time 66 h) was 98.6951 and 98.2083 and 98.321 and the U2OS cell growth (500 nM, time 68 h) was 99.0579 and 99.2791 and 98.7257. For the same compound, the U2OS cell growth (500 nM, time 70 h) was 99.2172 and 99.0058 and 98.0474, the U2OS cell growth (500 nM, time 72 h) was 99.3835 and 97.9774 and 98.1535 and the U2OS cell growth (1 uM, time 12 h) was 52.6588 and 56.1691. The U2OS cell growth (1 uM, time 14 h) was 51.9925 and 52.7616 and 54.7585, the U2OS cell growth (1 uM, time 16 h) was 56.6031 and 55.0152 and 61.691 and the U2OS cell growth (1 uM, time 18 h) was 53.5235 and 58.7802 and 62.5194. The U2OS cell growth (1 uM, time 20 h) was 51.6313 and 54.693 and 62.941, the U2OS cell growth (1 uM, time 22 h) was 57.6685 and 62.7904 and 65.694 and the U2OS cell growth (1 uM, time 24 h) was 56.205 and 62.4356 and 67.5479. The U2OS cell growth (1 uM, time 26 h) was 62.9207 and 67.4036 and 73.4542, the U2OS cell growth (1 uM, time 28 h) was 65.6927 and 67.0993 and 74.4534 and the U2OS cell growth (1 uM, time 30 h) was 75.0077 and 69.5357 and 80.2321. The U2OS cell growth (1 uM, time 32 h) was 71.09 and 73.7077 and 83.8866, the U2OS cell growth (1 uM, time 34 h) was 70.7522 and 76.3884 and 80.7929 and the U2OS cell growth (1 uM, time 36 h) was 78.8432 and 79.3635 and 85.9791. The U2OS cell growth (1 uM, time 38 h) was 81.5973 and 78.4608 and 85.3992, the U2OS cell growth (1 uM, time 40 h) was 83.0458 and 87.166 and 90.2856 and the U2OS cell growth (1 uM, time 42 h) was 87.5927 and 84.0348 and 91.3184. The U2OS cell growth (1 uM, time 44 h) was 90.4866 and 90.4435 and 93.7263, the U2OS cell growth (1 uM, time 46 h) was 86.8913 and 89.1886 and 91.2268 and the U2OS cell growth (1 uM, time 48 h) was 93.4668 and 93.1697 and 95.6703. For the same compound, the U2OS cell growth (1 uM, time 50 h) was 90.5037 and 92.7974 and 94.6171, the U2OS cell growth (1 uM, time 52 h) was 94.4565 and 94.6327 and 96.5524 and the U2OS cell growth (1 uM, time 54 h) was 95.1136 and 94.9498 and 97.5229. For the same compound, the U2OS cell growth (1 uM, time 56 h) was 97.0429 and 98.2943 and 97.7676, the U2OS cell growth (1 uM, time 58 h) was 97.7194 and 97.1073 and 98.1507 and the U2OS cell growth (1 uM, time 60 h) was 99.3852 and 99.6841 and 99.7561. The U2OS cell growth (1 uM, time 62 h) was 98.8771 and 99.2249 and 99.2461, the U2OS cell growth (1 uM, time 64 h) was 98.9508 and 99.5485 and 99.5018 and the U2OS cell growth (1 uM, time 66 h) was 99.536 and 99.4067 and 99.8248. The U2OS cell growth (1 uM, time 68 h) was 99.4416 and 99.1046 and 99.7676, the U2OS cell growth (1 uM, time 70 h) was 99.5903 and 99.8534 and 99.5556 and the U2OS cell growth (1 uM, time 72 h) was 99.5245 and 99.4087 and 99.4205.
